Results are given in words; binding and its absence hold for the method and conditions named. Binding seen in cells or lysates may run through a third protein. Some entries that bind do so weakly or less than the wild type.
Legend:
Assay in all cases: co-IP
FLAG–YIPF3 (human) = FLAG–YIPF3 (human) (UniProt Q9GZM5)
[1] = target: FLAG–YIPF3LIR2A_2 (Y112A, I115A) (human) (UniProt Q9GZM5)
[2] = target: FLAG–YIPF3LIR2 A_3 (Y121Z, V124A) (human) (UniProt Q9GZM5)
FLAG-tagged GABARAP = FLAG-tagged GABARAP (UniProt O95166)
[3] = target: FLAG–YIPF3LIR2A_1 (F47A, M50A) (human) (UniProt Q9GZM5)

By UniProt entry, the sequences of proteins in these tests, tags left out. Where a name states a change or a piece, a line headed by the entry shows the natural chain unless it says otherwise. Chains listed by the source or under a name are the forms on record and can include a tag or linker.
UniProt Q9GZM5: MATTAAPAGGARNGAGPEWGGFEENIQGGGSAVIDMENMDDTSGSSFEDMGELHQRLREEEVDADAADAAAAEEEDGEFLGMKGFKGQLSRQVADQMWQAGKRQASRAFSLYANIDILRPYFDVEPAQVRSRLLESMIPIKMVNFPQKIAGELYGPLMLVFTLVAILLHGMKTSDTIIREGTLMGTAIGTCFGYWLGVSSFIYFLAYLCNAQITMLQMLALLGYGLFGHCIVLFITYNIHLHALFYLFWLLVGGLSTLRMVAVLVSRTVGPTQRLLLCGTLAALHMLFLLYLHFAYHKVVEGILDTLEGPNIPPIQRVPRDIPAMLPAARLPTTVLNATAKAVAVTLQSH
FLAG–YIPF3LIR2 A_3 (Y121Z, V124A) (Q9GZM5, form named): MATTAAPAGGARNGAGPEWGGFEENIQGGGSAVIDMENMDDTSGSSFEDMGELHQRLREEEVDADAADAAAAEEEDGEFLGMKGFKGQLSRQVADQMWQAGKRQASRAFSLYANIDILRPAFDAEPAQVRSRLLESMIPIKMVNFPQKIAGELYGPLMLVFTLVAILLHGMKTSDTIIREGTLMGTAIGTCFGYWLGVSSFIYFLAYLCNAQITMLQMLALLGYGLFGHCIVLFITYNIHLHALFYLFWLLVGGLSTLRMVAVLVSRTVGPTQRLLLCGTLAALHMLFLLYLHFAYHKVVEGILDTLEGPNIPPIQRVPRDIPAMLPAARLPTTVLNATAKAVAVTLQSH
UniProt O95166: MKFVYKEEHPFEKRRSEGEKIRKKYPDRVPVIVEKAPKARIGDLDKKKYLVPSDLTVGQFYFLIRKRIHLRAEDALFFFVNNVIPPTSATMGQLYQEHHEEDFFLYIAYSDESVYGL
UniProt Q9BSR8: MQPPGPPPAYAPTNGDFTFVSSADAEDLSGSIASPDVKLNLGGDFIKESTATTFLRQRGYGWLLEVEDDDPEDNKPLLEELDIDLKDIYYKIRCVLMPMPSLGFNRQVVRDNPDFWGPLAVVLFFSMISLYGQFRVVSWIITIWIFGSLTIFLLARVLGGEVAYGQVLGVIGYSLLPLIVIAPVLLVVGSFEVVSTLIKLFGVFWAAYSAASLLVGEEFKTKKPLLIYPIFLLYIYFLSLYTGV

Substance | binding (FLAG–YIPF3 (human)) | binding [1] | binding [2] | binding (FLAG-tagged GABARAP) | binding [3]
endogenous YIPF4 (from UniProt Q9BSR8 1-244) | binds | binds | binds | no binding | binds
endogenous YIPF3 (from UniProt Q9GZM5 1-350) | – | – | – | binds | –
